# Laboratory results from publication PMC11984983.
# Results are given in words; binding and its absence hold for the method and conditions named. For part of these data: Binding seen in cells or lysates may run through a third protein. Some entries that bind do so weakly or less than the wild type. Where a sequence is shown, tags or fusion partners need not be part of it.
# T1: VN-tagged Spc72 (VN173-Spc72) (S. cerevisiae) (UniProt P39723)
# T1 sequence: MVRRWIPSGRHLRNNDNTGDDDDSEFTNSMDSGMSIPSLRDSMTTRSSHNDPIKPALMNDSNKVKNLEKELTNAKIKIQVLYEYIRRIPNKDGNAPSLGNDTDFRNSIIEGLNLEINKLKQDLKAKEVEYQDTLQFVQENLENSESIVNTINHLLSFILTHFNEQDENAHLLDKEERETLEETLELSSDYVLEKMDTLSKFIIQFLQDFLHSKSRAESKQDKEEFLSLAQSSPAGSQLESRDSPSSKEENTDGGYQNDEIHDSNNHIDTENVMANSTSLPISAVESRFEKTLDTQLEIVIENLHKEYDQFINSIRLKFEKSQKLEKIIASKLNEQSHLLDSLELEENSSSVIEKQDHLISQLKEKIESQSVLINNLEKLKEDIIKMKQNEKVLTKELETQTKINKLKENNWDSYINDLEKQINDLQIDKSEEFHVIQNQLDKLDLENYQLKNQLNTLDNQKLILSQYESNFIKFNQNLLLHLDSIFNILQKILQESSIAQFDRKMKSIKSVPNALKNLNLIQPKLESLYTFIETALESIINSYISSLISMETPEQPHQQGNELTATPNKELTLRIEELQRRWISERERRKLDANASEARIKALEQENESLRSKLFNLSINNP
# T2: Spc72, full length, Gal4 AD or BD fusion (yeast two-hybrid) (S. cerevisiae) (UniProt P39723)
# T2 sequence: T1 sequence
# T3: Atg11, full length, Gal4 AD or BD fusion (yeast two-hybrid) (S. cerevisiae) (UniProt Q12527)
# T3 sequence: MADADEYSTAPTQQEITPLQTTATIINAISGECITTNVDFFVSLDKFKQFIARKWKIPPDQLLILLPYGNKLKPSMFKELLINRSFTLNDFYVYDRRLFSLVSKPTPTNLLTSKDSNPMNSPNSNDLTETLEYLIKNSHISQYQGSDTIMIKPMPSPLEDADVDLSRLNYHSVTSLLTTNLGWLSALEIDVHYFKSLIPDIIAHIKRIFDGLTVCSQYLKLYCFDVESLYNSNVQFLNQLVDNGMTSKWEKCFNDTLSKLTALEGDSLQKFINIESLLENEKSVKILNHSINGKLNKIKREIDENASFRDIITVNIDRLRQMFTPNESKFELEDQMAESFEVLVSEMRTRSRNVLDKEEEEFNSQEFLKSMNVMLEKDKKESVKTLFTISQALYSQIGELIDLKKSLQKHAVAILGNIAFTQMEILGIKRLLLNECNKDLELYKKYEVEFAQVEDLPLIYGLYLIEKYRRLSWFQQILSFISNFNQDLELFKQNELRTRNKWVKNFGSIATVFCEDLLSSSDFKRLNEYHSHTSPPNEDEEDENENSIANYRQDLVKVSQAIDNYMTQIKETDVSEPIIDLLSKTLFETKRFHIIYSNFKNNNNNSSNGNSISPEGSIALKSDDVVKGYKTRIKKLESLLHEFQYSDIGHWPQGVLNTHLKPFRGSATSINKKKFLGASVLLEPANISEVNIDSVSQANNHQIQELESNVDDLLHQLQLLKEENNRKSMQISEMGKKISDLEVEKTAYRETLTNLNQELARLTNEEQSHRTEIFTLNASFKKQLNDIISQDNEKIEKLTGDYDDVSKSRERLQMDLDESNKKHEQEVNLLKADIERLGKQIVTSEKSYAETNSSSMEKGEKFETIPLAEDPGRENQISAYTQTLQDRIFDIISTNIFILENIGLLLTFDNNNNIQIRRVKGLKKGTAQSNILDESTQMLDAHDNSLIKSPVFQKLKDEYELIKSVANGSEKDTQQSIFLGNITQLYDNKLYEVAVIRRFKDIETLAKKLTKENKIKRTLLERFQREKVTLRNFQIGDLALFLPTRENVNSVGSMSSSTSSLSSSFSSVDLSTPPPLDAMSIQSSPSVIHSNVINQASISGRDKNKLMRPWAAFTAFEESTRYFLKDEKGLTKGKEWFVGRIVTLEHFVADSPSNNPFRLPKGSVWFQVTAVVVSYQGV
# B1: VC-tagged Atg11 (VC155-Atg11) (protein, UniProt Q12527 1-1178)
# chain: T3 sequence
# B2: Atg11, full length, Gal4 AD or BD fusion (yeast two-hybrid) (protein, UniProt Q12527 1-1178)
# chain: T3 sequence
# B3: Cnm67, full length, Gal4 AD or BD fusion (yeast two-hybrid) (protein, UniProt P53865 1-581)
# chain: MTDFDLMNFPFHERLDSPVSENGEIKDGEPIPQNWLNENHVGKSILPLFVNPEDVINCNFSNARDSYEENKSPSMDQMNYARNTSYQESPGLQERPKNEKDKSPIGTDVHKKDVPNFIHSTPRENSSKHFTRANEQASAQPTDEHTSPDISIEDCNGAKIFLQNSLSKEDFRMLENVILGYQKKVIELGRDNLRQEERANSLQKELEAATKSNDKTLDNKKKIEEQTVLIENLTKDLSLNKEMLEKANDTIQTKHTALLSLTDSLRKAELFEIPIGILFFDLYDSEENSSKLDHILQEKYPNIKGFLCASQQEELSRISQRFKNAKAEAEDLRNELENKKIEIQTMREKNNTLIGTNKTLSKQNKILCDKFDKLTIDEKEILKGCNEEIKIKLERLNERLGSWEKSKEKYETSLKDKEKMLADAEKKTNTLSKELDNLRSRFGNLEGNTSERITIKNILQSRPDISAEECNFLMVEQIDSANLTTLQNTVKEIVLAVGIPYPKLRRKIPLLAIKLKYENIMLSNFAQRLHRQVYSQEMNLKKFTDQAYYDFMSTRRMDSIDHHLERCLDHLYDHILEKMVK
# What was measured:
# [1] = target: T1, VN-tagged Spc72 (VN173-Spc72) (S. cerevisiae); assay: split reporter; BiFC in living diploid S. cerevisiae cells co-expressing VN-Spc72 and VC-Atg11, grown in YEP with 2% galactose for 3 h; Venus signal imaged with FM4-64 (vacuolar membrane) or Spc42-mCherry (SPBs)
# [2] = target: T2, Spc72, full length, Gal4 AD or BD fusion (yeast two-hybrid) (S. cerevisiae); assay: two-hybrid; Gal4 AD/BD fusions from pGADC1 and pGBDC1 co-transformed into strain PJ69-4A; scored by white colonies on medium with 6 µg/mL adenine and/or growth on SD -trp -leu -his with 2 mM 3-AT, 30 °C
# [3] = target: T3, Atg11, full length, Gal4 AD or BD fusion (yeast two-hybrid) (S. cerevisiae); assay: as above
binder,measurement,setting,value
B1,binding,[1],binds
B2,binding,[2],binds
B3,binding,[3],no binding
